{"source": "the supplement of paper PMC10849652", "note": "Some of the results follow.", "data": [{"compound": "CC1=C(C=C(C=C1)NC(=O)C2=CC(=CC=C2)C(C)(C)C#N)NC3=CC4=C(C=C3)N=CN(C4=O)C", "assay": "log2 fold change, soluble protein after heating vs DMSO (PISA); higher = thermal stabilisation; K562 cells, 10 uM, 30 min; active = over 0.2 and 3.5 SD of the protein, either way, in both replicates (recomputed)", "outline": "(§1)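 K562 cells at 2×10^6 cells/mL were exposed to 10 μM compound for 30 min, then aliquots were heated for 3 min across 48°C-58°C, pooled, and extracted in PBS containing 0.5% NP-40 at 4°C. The supernatant after 21,000xg for 90 min was taken as soluble protein and measured by TMTpro 16plex LC-MS/MS with channel sums equalised. Thermal stability is reported relative to control samples, with values from duplicates. Fold changes are given on a log2 scale.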", "values": [{"target": "GLRX5 (UniProt Q86SX6)", "log2 fold change": "inactive: 0.027"}, {"target": "GINS3 (UniProt Q9BRX5)", "log2 fold change": "inactive: 0.009"}, {"target": "GNPDA1 (UniProt P46926)", "log2 fold change": "inactive: -0.01"}, {"target": "GMEB2 (UniProt Q9UKD1)", "log2 fold change": "inactive: 0.038"}, {"target": "GPN1 isoform 5 (UniProt Q9HCN4)", "log2 fold change": "inactive: -0.025"}, {"target": "GPR89A (UniProt B7ZAQ6)", "log2 fold change": "inactive: -0.046"}, {"target": "GINS2 (UniProt Q9Y248)", "log2 fold change": "inactive: 0.136"}, {"target": "GOLGA5 (UniProt Q8TBA6)", "log2 fold change": "inactive: -0.028"}, {"target": "GNE isoform 2 (UniProt Q9Y223)", "log2 fold change": "inactive: -0.016"}, {"target": "GNPNAT1 (UniProt Q96EK6)", "log2 fold change": "inactive: 0.002"}, {"target": "GLOD4 isoform 2 (UniProt Q9HC38)", "log2 fold change": "inactive: 0.023"}, {"target": "GRHPR (UniProt Q9UBQ7)", "log2 fold change": "inactive: -0.053"}, {"target": "GPN3 isoform 2 (UniProt Q9UHW5)", "log2 fold change": "inactive: -0.037"}, {"target": "GLRX2 isoform 2 (UniProt Q9NS18)", "log2 fold change": "inactive: 0.085"}, {"target": "GMPR2 isoform 2 (UniProt Q9P2T1)", "log2 fold change": "inactive: -0.032"}, {"target": "GRSF1 (UniProt Q12849)", "log2 fold change": "inactive: 0.094"}, {"target": "GRB2 (UniProt P62993)", "log2 fold change": "inactive: 0.075"}]}, {"compound": "CC1=C(C=C(C=C1)NC(=O)C2=CC(=CC=C2)N(C)C)NC(=O)C3=CC=C(C=C3)O", "assay": "log2 fold change, soluble protein after heating vs DMSO (PISA); higher = thermal stabilisation; K562 cells, 10 uM, 30 min; active = over 0.2 and 3.5 SD of the protein, either way, in both replicates (recomputed)", "outline": "as §1", "values": [{"target": "GPAT3 (UniProt Q53EU6)", "log2 fold change": "inactive: 0.064"}, {"target": "GK (UniProt P32189)", "log2 fold change": "inactive: 0.177"}, {"target": "GLYR1 (UniProt Q49A26)", "log2 fold change": "inactive: 0.032"}, {"target": "GPATCH11 (UniProt Q8N954)", "log2 fold change": "inactive: -0.015"}, {"target": "GPKOW (UniProt Q92917)", "log2 fold change": "inactive: -0.033"}, {"target": "GNB1 (UniProt P62873)", "log2 fold change": "inactive: -0.074"}, {"target": "GINS1 (UniProt Q14691)", "log2 fold change": "inactive: -0.018"}, {"target": "GNB2 (UniProt P62879)", "log2 fold change": "inactive: 0.018"}, {"target": "GNAI2 isoform 4 (UniProt P04899)", "log2 fold change": "inactive: 0.002"}, {"target": "GPALPP1 (UniProt Q8IXQ4)", "log2 fold change": "inactive: 0.122"}, {"target": "GMPPB isoform 2 (UniProt Q9Y5P6)", "log2 fold change": "inactive: -0.005"}, {"target": "GNB4 (UniProt Q9HAV0)", "log2 fold change": "inactive: -0.161"}, {"target": "GPHN isoform 2 (UniProt Q9NQX3)", "log2 fold change": "inactive: 0.004"}, {"target": "GNL1 (UniProt P36915)", "log2 fold change": "inactive: -0.014"}, {"target": "GSK3A (UniProt P49840)", "log2 fold change": "inactive: 0.009"}, {"target": "GPAT4 (UniProt Q86UL3)", "log2 fold change": "inactive: -0.004"}, {"target": "GIPC1 (UniProt O14908)", "log2 fold change": "inactive: -0.052"}, {"target": "GNB1L (UniProt Q9BYB4)", "log2 fold change": "inactive: -0.026"}, {"target": "GMNN (UniProt O75496)", "log2 fold change": "inactive: 0.018"}, {"target": "GMDS (UniProt O60547)", "log2 fold change": "inactive: -0.011"}, {"target": "GPS1 isoform 7 (UniProt Q13098)", "log2 fold change": "inactive: 0.024"}, {"target": "GINS4 (UniProt Q9BRT9)", "log2 fold change": "inactive: -0.01"}, {"target": "GM2A (UniProt P17900)", "log2 fold change": "inactive: 0.085"}, {"target": "GLRX5 (UniProt Q86SX6)", "log2 fold change": "inactive: -0.176"}, {"target": "GINS3 (UniProt Q9BRX5)", "log2 fold change": "inactive: -0.044"}, {"target": "GNPDA1 (UniProt P46926)", "log2 fold change": "inactive: 0.017"}, {"target": "GMEB2 (UniProt Q9UKD1)", "log2 fold change": "inactive: -0.033"}, {"target": "GPN1 isoform 5 (UniProt Q9HCN4)", "log2 fold change": "inactive: -0.015"}, {"target": "GPR89A (UniProt B7ZAQ6)", "log2 fold change": "inactive: 0.034"}, {"target": "GINS2 (UniProt Q9Y248)", "log2 fold change": "inactive: -0.168"}, {"target": "GOLGA5 (UniProt Q8TBA6)", "log2 fold change": "inactive: -0.033"}, {"target": "GNE isoform 2 (UniProt Q9Y223)", "log2 fold change": "inactive: 0.057"}, {"target": "GNPNAT1 (UniProt Q96EK6)", "log2 fold change": "inactive: 0.024"}, {"target": "GLOD4 isoform 2 (UniProt Q9HC38)", "log2 fold change": "inactive: -0.023"}, {"target": "GRHPR (UniProt Q9UBQ7)", "log2 fold change": "inactive: 0.027"}, {"target": "GPN3 isoform 2 (UniProt Q9UHW5)", "log2 fold change": "inactive: -0.001"}, {"target": "GLRX2 isoform 2 (UniProt Q9NS18)", "log2 fold change": "inactive: -0.04"}, {"target": "GMPR2 isoform 2 (UniProt Q9P2T1)", "log2 fold change": "inactive: -0.019"}, {"target": "GRSF1 (UniProt Q12849)", "log2 fold change": "inactive: 0.016"}, {"target": "GRB2 (UniProt P62993)", "log2 fold change": "inactive: -0.008"}]}, {"compound": "CC1=CC=C(C=C1)SC2=C3C=C(SC3=CN=C2)C(=O)N", "assay": "log2 fold change, soluble protein after heating vs DMSO (PISA); higher = thermal stabilisation; K562 cells, 10 uM, 30 min; active = over 0.2 and 3.5 SD of the protein, either way, in both replicates (recomputed)", "outline": "as §1", "values": [{"target": "GPAT3 (UniProt Q53EU6)", "log2 fold change": "inactive: -0.026"}, {"target": "GK (UniProt P32189)", "log2 fold change": "inactive: -0.013"}, {"target": "GLYR1 (UniProt Q49A26)", "log2 fold change": "inactive: -0.125"}, {"target": "GPATCH11 (UniProt Q8N954)", "log2 fold change": "inactive: 0.013"}, {"target": "GPKOW (UniProt Q92917)", "log2 fold change": "inactive: 0.062"}, {"target": "GNB1 (UniProt P62873)", "log2 fold change": "inactive: -0.047"}, {"target": "GINS1 (UniProt Q14691)", "log2 fold change": "inactive: 0.063"}, {"target": "GNB2 (UniProt P62879)", "log2 fold change": "inactive: -0.053"}, {"target": "GNAI2 isoform 4 (UniProt P04899)", "log2 fold change": "inactive: -0.032"}, {"target": "GPALPP1 (UniProt Q8IXQ4)", "log2 fold change": "inactive: -0.043"}, {"target": "GMPPB isoform 2 (UniProt Q9Y5P6)", "log2 fold change": "inactive: 0.033"}, {"target": "GNB4 (UniProt Q9HAV0)", "log2 fold change": "inactive: -0.033"}, {"target": "GPHN isoform 2 (UniProt Q9NQX3)", "log2 fold change": "inactive: 0.008"}, {"target": "GNL1 (UniProt P36915)", "log2 fold change": "inactive: 0.032"}, {"target": "GSK3A (UniProt P49840)", "log2 fold change": "inactive: 0.197"}, {"target": "GPAT4 (UniProt Q86UL3)", "log2 fold change": "inactive: 0.014"}, {"target": "GIPC1 (UniProt O14908)", "log2 fold change": "inactive: 0.013"}, {"target": "GNB1L (UniProt Q9BYB4)", "log2 fold change": "inactive: 0.01"}, {"target": "GMNN (UniProt O75496)", "log2 fold change": "inactive: 0.006"}, {"target": "GMDS (UniProt O60547)", "log2 fold change": "inactive: 0.023"}, {"target": "GPS1 isoform 7 (UniProt Q13098)", "log2 fold change": "inactive: 0.014"}, {"target": "GINS4 (UniProt Q9BRT9)", "log2 fold change": "inactive: 0"}, {"target": "GM2A (UniProt P17900)", "log2 fold change": "inactive: 0.082"}, {"target": "GLRX5 (UniProt Q86SX6)", "log2 fold change": "inactive: 0.096"}, {"target": "GINS3 (UniProt Q9BRX5)", "log2 fold change": "inactive: 0.018"}, {"target": "GNPDA1 (UniProt P46926)", "log2 fold change": "inactive: 0.001"}, {"target": "GMEB2 (UniProt Q9UKD1)", "log2 fold change": "inactive: 0.041"}, {"target": "GPN1 isoform 5 (UniProt Q9HCN4)", "log2 fold change": "inactive: 0.028"}, {"target": "GPR89A (UniProt B7ZAQ6)", "log2 fold change": "inactive: 0.079"}, {"target": "GINS2 (UniProt Q9Y248)", "log2 fold change": "inactive: 0.099"}, {"target": "GOLGA5 (UniProt Q8TBA6)", "log2 fold change": "inactive: 0.002"}, {"target": "GNE isoform 2 (UniProt Q9Y223)", "log2 fold change": "inactive: -0.079"}, {"target": "GNPNAT1 (UniProt Q96EK6)", "log2 fold change": "inactive: 0.028"}, {"target": "GLOD4 isoform 2 (UniProt Q9HC38)", "log2 fold change": "inactive: 0.011"}, {"target": "GRHPR (UniProt Q9UBQ7)", "log2 fold change": "inactive: -0.005"}, {"target": "GPN3 isoform 2 (UniProt Q9UHW5)", "log2 fold change": "inactive: 0.094"}, {"target": "GLRX2 isoform 2 (UniProt Q9NS18)", "log2 fold change": "inactive: 0.177"}, {"target": "GMPR2 isoform 2 (UniProt Q9P2T1)", "log2 fold change": "inactive: 0.003"}, {"target": "GRSF1 (UniProt Q12849)", "log2 fold change": "inactive: 0.072"}, {"target": "GRB2 (UniProt P62993)", "log2 fold change": "inactive: -0.021"}]}]}
